Assay results as given in article PMC9377714, “Unconventional tonicity-regulated nuclear trafficking of NFAT5 mediated by KPNB1, XPOT and RUVBL2” (Journal of Cell Science, 2022).

T1: FLAG–NFAT5_(132–581) (UniProt O94916)
T1 sequence: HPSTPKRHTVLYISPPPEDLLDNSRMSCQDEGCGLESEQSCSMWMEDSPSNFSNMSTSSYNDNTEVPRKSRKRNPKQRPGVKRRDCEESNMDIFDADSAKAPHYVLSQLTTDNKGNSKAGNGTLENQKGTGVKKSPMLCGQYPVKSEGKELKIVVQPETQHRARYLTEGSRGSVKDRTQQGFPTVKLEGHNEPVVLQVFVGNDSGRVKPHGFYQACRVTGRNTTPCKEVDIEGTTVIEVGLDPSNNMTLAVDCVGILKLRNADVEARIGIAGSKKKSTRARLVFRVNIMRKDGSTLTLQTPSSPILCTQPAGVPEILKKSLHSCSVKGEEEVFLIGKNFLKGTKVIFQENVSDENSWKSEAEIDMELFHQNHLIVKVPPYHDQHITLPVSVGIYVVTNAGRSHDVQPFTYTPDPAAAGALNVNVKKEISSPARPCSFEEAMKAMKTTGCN


These molecules were tested against T1, FLAG–NFAT5_(132–581) (assay: affinity purification with mass spectrometry; anti-FLAG affinity resin on lysates of transfected HeLa cells treated with hypotonic or hypertonic medium; trypsin and Lys-C digest, LTQ-Orbitrap MS/MS).

Row | binding | Molecule
1 | binds | inosine-5'-monophosphate dehydrogenase 2 (IMPDH2), endogenous (from UniProt P12268 1-514)
2 | binds | matrin 3 (MATR3), endogenous (protein, UniProt P43243 1-847) MSKSFQQSSLSRDSQGHGRDLSAAGIGLLAAATQSLSMPASLGRMNQGTARLASLMNLGMSSSLNQQGAHSALSSASTSSHNLQSIFNIGSRGPLPLSSQHRGDADQASNILASFGLSARDLDELSRYPEDKITPENLPQILLQLKRRRTEEGPTLSYGRDGRSATREPPYRVPRDDWEEKRHFRRDSFDDRGPSLNPVLDYDHGSRSQESGYYDRMDYEDDRLRDGERCRDDSFFGETSHNYHKFDSEYERMGRGPGPLQERSLFEKKRGAPPSSNIEDFHGLLPKGYPHLCSICDLPVHSNKEWSQHINGASHSRRCQLLLEIYPEWNPDNDTGHTMGDPFMLQQSTNPAPGILGPPPPSFHLGGPAVGPRGNLGAGNGNLQGPRHMQKGRVETSRVVHIMDFQRGKNLRYQLLQLVEPFGVISNHLILNKINEAFIEMATTEDAQAAVDYYTTTPALVFGKPVRVHLSQKYKRIKKPEGKPDQKFDQKQELGRVIHLSNLPHSGYSDSAVLKLAEPYGKIKNYILMRMKSQAFIEMETREDAMAMVDHCLKKALWFQGRCVKVDLSEKYKKLVLRIPNRGIDLLKKDKSRKRSYSPDGKESPSDKKSKTDGSQKTESSTEGKEQEEKSGEDGEKDTKDDQTEQEPNMLLESEDELLVDEEEAAALLESGSSVGDETDLANLGDVASDGKKEPSDKAVKKDGSASAAAKKKLKKVDKIEELDQENEAALENGIKNEENTEPGAESSENADDPNKDTSENADGQSDENKDDYTIPDEYRIGPYQPNVPVGIDYVIPKTGFYCKLCSLFYTNEEVAKNTHCSSLPHYQKLKKFLNKLAEERRQKKET
3 | binds | adenine nucleotide translocator 3 (SLC25A6), endogenous (protein, UniProt P12236 1-298) MTEQAISFAKDFLAGGIAAAISKTAVAPIERVKLLLQVQHASKQIAADKQYKGIVDCIVRIPKEQGVLSFWRGNLANVIRYFPTQALNFAFKDKYKQIFLGGVDKHTQFWRYFAGNLASGGAAGATSLCFVYPLDFARTRLAADVGKSGTEREFRGLGDCLVKITKSDGIRGLYQGFSVSVQGIIIYRAAYFGVYDTAKGMLPDPKNTHIVVSWMIAQTVTAVAGVVSYPFDTVRRRMMMQSGRKGADIMYTGTVDCWRKIFRDEGGKAFFKGAWSNVLRGMGGAFVLVLYDELKKVI

These are yes or no findings as the source states them, for the method shown. In cells and extracts the contact can be indirect. A yes stands for co-enrichment or nearness to the bait. Other partners may have been found. Sequences can lack the tags named with a protein.
